The target of this experiment is STAT3 (Homo sapiens, UniProt P40763). The experiment can be described thus: Quantitation of STAT3 degradation in A549 cells by Western blot. It is filed as cell-based. The note with it: read-out: A549 DC50, 24 hours, tested up to 30 μM or 10 μM. The procedure:
Degradation of total cellular STAT3 protein in A549 was quantitatively measured using SDS-PAGE and Western blot analysis. A549 cells (5×10^5 cells/well, 2 mL) were seeded into 6-well plates and were incubated in the incubator under 5% CO2 overnight to reach ˜80% confluency. The next day, the culture medium was changed with 1 ml fresh media. Then, 1 mL of media containing 2× compound solution was added into the well to make the final concentration of 30 μM, 10 μM, 3 μM, 1 μM, 0.3 μM and 0 μM (DMSO). The media was thoroughly mixed and incubated for 24 hours at 37° C. under 5% CO2. Then, the culture media was removed from the assay plates and the cells were washed with ice-cold PBS twice. To prepare cell lysates, 200 ul pre-chilled RIPA lysis buffer (Boston BioProducts BP-115D) with protease/phosphatase inhibitor (Roche 05892791001/Roche 04906837001) was added directly into the well to lyse the cells for 20 minutes on ice. The cell lysates were then transferred to centrifuge tubes. Insoluble part of lysates was removed by centrifuging the lysates at 13000 rpm for 20 minutes. The supernatant was then collected and mixed with 5× loading buffer (Beyotime Bio P0015) to make the final samples for SDS-PAGE analysis. The samples were heated at 100° C. for 10 minutes and cool to room temperature before centrifuging at 13000 rpm for 20 minutes. To analyze the samples by SDS-PAGE, 10 ul samples were loaded onto SDS-PAGE gel (Novex, WG1403BOX) and the SDS-PAGE gel was run for 20 minutes at 80 V, then at 120 V for 1.5 hours. The SDS-PAGE gel was then transferred to nitrocellulose membrane using the wet-transfer method at 250 mA for 1.5 hours. The membrane was then blocked with LI-COR blocking buffer (LI-COR, 927-50000) for 1 hour and was probed with primary antibody (mouse anti-STAT3 (124H6) (CST #91395) 1:2000 or mouse anti-beta-Actin (8H10D10) (CST #3700) 1:10000) at 4° C. overnight. The membrane was then washed three times with TBST buffer and probed with secondary antibody (anti-mouse IgG (LI-COR, 926-68070), 1:5000) for 1 hour at room temperature. The membrane was then scanned on a LI-COR Odyssey instrument and was quantified using Image Studio Version 5.2. Concentration at 50% degradation (DC50) was calculated by fitting dose dependent degradation data using a sigmoidal equation using GraphPad Prism Version 8.0.
A general note: In western blotting, separated proteins are transferred to a membrane and probed.

Protein sequences, listed by entry. Tags and fused reporters are not part of them.
UniProt P40763, whole entry: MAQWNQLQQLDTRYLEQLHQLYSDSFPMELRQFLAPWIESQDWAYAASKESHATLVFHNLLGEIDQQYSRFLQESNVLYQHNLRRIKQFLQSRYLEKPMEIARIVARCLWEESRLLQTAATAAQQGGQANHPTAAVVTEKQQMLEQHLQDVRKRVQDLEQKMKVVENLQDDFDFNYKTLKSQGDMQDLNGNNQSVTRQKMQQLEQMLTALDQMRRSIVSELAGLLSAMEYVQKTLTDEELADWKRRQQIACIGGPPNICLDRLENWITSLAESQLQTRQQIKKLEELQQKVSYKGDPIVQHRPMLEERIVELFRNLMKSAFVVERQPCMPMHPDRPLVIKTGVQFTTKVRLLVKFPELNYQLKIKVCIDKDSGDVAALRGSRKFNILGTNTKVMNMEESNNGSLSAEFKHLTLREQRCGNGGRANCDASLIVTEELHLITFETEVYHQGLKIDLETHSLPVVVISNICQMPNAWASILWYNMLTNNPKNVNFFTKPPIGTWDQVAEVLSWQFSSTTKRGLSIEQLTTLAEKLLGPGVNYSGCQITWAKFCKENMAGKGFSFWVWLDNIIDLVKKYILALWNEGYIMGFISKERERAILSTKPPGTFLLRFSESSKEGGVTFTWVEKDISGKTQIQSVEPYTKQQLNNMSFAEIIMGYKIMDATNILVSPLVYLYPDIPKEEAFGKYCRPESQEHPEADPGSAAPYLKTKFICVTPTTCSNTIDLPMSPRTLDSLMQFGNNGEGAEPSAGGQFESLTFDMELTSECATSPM

Structures were worked out from names or drawings and are uncertain.

Usually DC50 stands for the midpoint of the concentration-degradation curve. Regarding `C/C(=C\C(=O)N[C@H]1CCc2cccc3c2N(C1=O)[C@H](C(=O)N[C@@H](CCC(N)=O)[C@@H](C)OCc1ccc(CCCOCC(=O)N[C@H](C(=O)N2C[C@@H](O)C[C@H]2C(=O)NCc2ccc(-c4scnc4C)cc2)C(C)(C)C)cc1)C3)c1ccc(C(F)(F)P(=O)(OCOC(=O)C(C)(C)C)OCOC(=O)C(C)(C)C)cc1`, the DC50 is more than 30 µM.

As for `C/C(=C\C(=O)N[C@H]1CCc2cccc3c2N(C1=O)[C@H](C(=O)N[C@@H](CCC(N)=O)[C@@H](C)OCc1ccc(CCCOCCOCCOCCOCCOCCOc2cc(-c4scnc4C)ccc2CNC(=O)[C@@H]2C[C@@H](O)CN2C(=O)[C@@H](NC(=O)C2(F)CC2)C(C)(C)C)cc1)C3)c1ccc(C(F)(F)P(=O)(OCOC(=O)C(C)(C)C)OCOC(=O)C(C)(C)C)cc1`, the DC50 was more than 30 µM.

Source of the values: patent publication US12077555B2, “STAT degraders and uses thereof” (Kymera Therapeutics, Inc., priority 2019, dated 2024).
